Structures can show the parent of a compound that is named as a salt. The list shows a part of the results. Hit calls seldom repeat between salt and free forms of one compound.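 In K562 cells expressing nanoluciferase-fused kinases, luminescence was recorded at 4 h intervals between 2 and 18 h, normalized as percent of control with DMSO at 100% and a positive control at 0%. A significant (2 sigma) signal drop marks a time point as decreased. The authors' rule for a hit is not shown and takes in more than the number of time points.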
molecular target: CDK3 (UniProt Q00526); assay: kinase-Nluc reporter destabilization hit call (1 = scored as downregulated) (binary); higher = compound decreases kinase abundance; details: K562; 2-18 h

Amino acid sequences for entries named in this document (tags omitted). A change or cut given only in a name is not applied to a line headed by its entry.
UniProt Q00526: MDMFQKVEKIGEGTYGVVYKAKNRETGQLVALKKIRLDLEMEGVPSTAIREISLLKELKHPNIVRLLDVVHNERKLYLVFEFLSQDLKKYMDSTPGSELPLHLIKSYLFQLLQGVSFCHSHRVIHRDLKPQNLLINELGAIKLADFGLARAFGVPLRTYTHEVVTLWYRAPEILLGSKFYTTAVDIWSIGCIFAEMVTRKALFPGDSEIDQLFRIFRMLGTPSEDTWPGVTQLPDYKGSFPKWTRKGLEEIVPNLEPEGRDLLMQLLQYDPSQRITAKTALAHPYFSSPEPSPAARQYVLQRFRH
UniProt P11802: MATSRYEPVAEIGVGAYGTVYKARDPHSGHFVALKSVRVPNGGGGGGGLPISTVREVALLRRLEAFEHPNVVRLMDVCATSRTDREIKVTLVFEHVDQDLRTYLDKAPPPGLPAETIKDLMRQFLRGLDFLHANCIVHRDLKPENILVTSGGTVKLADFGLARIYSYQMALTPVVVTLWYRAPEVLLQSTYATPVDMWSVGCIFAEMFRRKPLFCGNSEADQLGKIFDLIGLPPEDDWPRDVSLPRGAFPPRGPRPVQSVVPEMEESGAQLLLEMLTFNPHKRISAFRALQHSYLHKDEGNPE

kinase-Nluc reporter destabilization hit call, inactive:
CC(C)=CC[C@H](O)C1=CC(=O)c2c(O)ccc(O)c2C1=O [(-)-Alkannin] (2.5 µM) 0
CC(C)c1cnc(-c2cc(Cl)ccc2F)cc1Nc1ccncc1C(=O)NC(CO)CO (2.5 µM) 0
Cn1cnc(-c2cc3nccc(Oc4ccc(NC(=S)NC(=O)Cc5ccccc5)cc4F)c3s2)c1 [MGCD-265 analog] (10 µM) 0
COC1(c2sc3c(N4CCOCC4)nc(-c4cnc(N)nc4)nc3c2C)COC1 (2.5 µM) 0
Cc1cc(NC(=O)c2cccc(NC(=O)/C=C/CN(C)C)c2)ccc1Nc1nccc(-c2cccnc2)n1 (10 µM) 0
O=C(/C=C/c1ccc(O)c(O)c1)OC1CC(OC(=O)/C=C/c2ccc(O)c(O)c2)(C(=O)O)CC(O)C1O (stereo unspecified) [1,3-Dicaffeoylquinic acid] (10 µM) 0
COc1ccc2c(c1O)OC(C)(C)c1c-2ccc2c1C(=O)N(c1ccc(C(=O)c3ccccc3)cc1)C2=O [Ampkinone] (10 µM) 0
CNC(=O)Nc1ccc(-c2cc(-c3ccnc(Nc4ccc(C)c(S(=O)(=O)N(C)C)c4)n3)ccn2)cc1 [hSMG-1 inhibitor 11e] (2.5 µM) 0

molecular target: CDK4 (UniProt P11802); assay: as above; details: K562; 2-18 h

kinase-Nluc reporter destabilization hit call, inactive:
O=c1cc(O)cc(/C=C/c2ccc(O)c(O)c2)o1 [Hispidin] (10 µM) 0
CC1CN(C(=O)Nc2ccc(Cl)c(Cl)c2)C(=Nc2ccc(F)cc2)S1 (stereo unspecified) (10 µM) 0
COc1cc2c[n+](C)c3c4cc5c(cc4ccc3c2cc1OC)OCO5 [Nitidine (chloride)] (2 µM) 0
Cc1c(CN2CCN(S(C)(=O)=O)CC2)sc2c(N3CCOCC3)nc(-c3cnc(N)nc3)nc12 (2.5 µM) 0
Cc1cc([C@H](C)Nc2ccccc2)c2oc(N3CCOCC3)cc(=O)c2c1 (10 µM) 0
O=C(CNC(=O)c1ccc(-c2ccccc2)cc1)NC1CCCc2ccccc21 (stereo unspecified) [TAO Kinase inhibitor 1] (10 µM) 0
Cn1cc(-c2ccc(CNc3cc(-c4cnc5cc(OCCCN6CCCC6)ccn45)ncn3)cc2)cn1 (10 µM) 0
Cc1ccc(S(=O)(=O)Nc2ccccc2C=Nc2ccccc2NS(=O)(=O)c2ccc(C)cc2)cc1 (10 µM) 0
O=C(/C=C/c1ccc(O)c(O)c1)c1ccc(O[C@@H]2O[C@H](CO)[C@@H](O)[C@H](O)[C@H]2O)c(O)c1O [Marein] (10 µM) 0
O=C(NCCCNc1nc(Nc2cccc(NC(=O)N3CCCC3)c2)ncc1I)c1cccs1 (2.5 µM) 0
CN(CCNc1ccc2ncc(-c3ccc(C(N)=O)cc3)n2n1)C(=O)OC(C)(C)C (10 µM) 0
C=C(C)C(=O)Nc1cccc(-c2ncnc3[nH]cc(C(=O)OCC)c23)c1 (10 µM) 0
COc1ccc(C(=C2C(=O)Nc3ccccc32)c2ccc(OC)cc2)cc1 (10 µM) 0
CN1CCN(c2ccc(C(=O)Nc3cc(-c4cccc(NS(=O)(=O)c5ccccc5)c4)[nH]n3)cc2)CC1 [BPR1J-097 Hydrochloride] (2.5 µM) 0
C=CC(=O)Nc1cc2c(Nc3ccc(OCc4ccccn4)c(Cl)c3)ncnc2cc1OCCN1CCOCC1 (10 µM) 0
Cc1c(NC(=O)OC[C@@H]2COCCN2)cn2ncnc(Nc3ccc4c(cnn4Cc4cccc(F)c4)c3)c12 (10 µM) 0
CNc1nc(Nc2cnn(C3CCN(C4COC4)CC3F)c2Cl)ncc1C(F)(F)F (stereo unspecified) (10 µM) 0
O=C(NCCO)c1ccc2c(c1)nc(Nc1cccc(Cl)c1)c1ccncc12 [CK2 inhibitor 2] (10 µM) 0
N#CC(c1ccnc(NCCc2cccnc2)n1)c1nc2ccccc2s1 (stereo unspecified) (10 µM) 0
CCN(CC)S(=O)(=O)c1ccc(OC)c(N2CCN(C(=O)c3ccc(F)cc3C(F)(F)F)CC2)c1 (10 µM) 0
CO[C@H]1C[C@@H]2CC[C@@H](C)[C@@](O)(O2)C(=O)C(=O)N2CCCC[C@H]2C(=O)O[C@H]([C@H](C)C[C@@H]2CC[C@@H](O)[C@H](OC)C2)CC(=O)[C@H](C)/C=C(\C)[C@@H](O)[C@@H](OC)C(=O)[C@H](C)C[C@H](C)/C=C/C=C/C=C/1C [Rapamycin] (10 µM) 0
CN(C)CCN(Cc1ccc(Cl)cc1)c1ccccn1 [Chloropyramine hydrochloride] (10 µM) 0
O=C(Nc1ccc(F)cc1F)[C@H](NC(=S)Nc1cc(C(F)(F)F)cc(C(F)(F)F)c1)c1ccccc1 (2.5 µM) 0
Cc1ccc(Nc2cc(-c3cccc(N4C(=O)c5ccccc5C4=O)c3)ncn2)cc1NS(C)(=O)=O (10 µM) 0
CC(C)(C)c1ccc(S(=O)(=O)Nc2ccc(-n3ccnc3)cc2)cc1 (10 µM) 0
CCc1cc(O)c(F)cc1-c1ccc2c(-c3nc4c([nH]3)CN(C3CCN(C)CC3)CC4)n[nH]c2c1 [JAK-IN-5 (hydrochloride)] (2 µM) 0
CC1=C2C(=O)O[C@@H](c3ccoc3)[C@]2(C)CCC1 [Fraxinellone] (10 µM) 0
COc1cc(C(N)=O)nc(-c2cccc(C#C[C@]3(O)CCN(C)C3=O)c2)c1 (10 µM) 0
COc1ncc(-c2nc(N3CCOCC3)nc3c(CN4CCC(C(C)(C)O)CC4)cc(F)cc23)cc1NS(C)(=O)=O [Linperlisib] (10 µM) 0
Fc1ccc(-c2nc(-c3ccccc3F)[nH]c2-c2ccncc2)cc1 (2.5 µM) 0
CC(C)=CC[C@H](O)C1=CC(=O)c2c(O)ccc(O)c2C1=O [(-)-Alkannin] (2.5 µM) 0
CC(C)c1cnc(-c2cc(Cl)ccc2F)cc1Nc1ccncc1C(=O)NC(CO)CO (2.5 µM) 0
Cn1cnc(-c2cc3nccc(Oc4ccc(NC(=S)NC(=O)Cc5ccccc5)cc4F)c3s2)c1 [MGCD-265 analog] (10 µM) 0
COC1(c2sc3c(N4CCOCC4)nc(-c4cnc(N)nc4)nc3c2C)COC1 (2.5 µM) 0
Cc1cc(NC(=O)c2cccc(NC(=O)/C=C/CN(C)C)c2)ccc1Nc1nccc(-c2cccnc2)n1 (10 µM) 0
O=C(/C=C/c1ccc(O)c(O)c1)OC1CC(OC(=O)/C=C/c2ccc(O)c(O)c2)(C(=O)O)CC(O)C1O (stereo unspecified) [1,3-Dicaffeoylquinic acid] (10 µM) 0
COc1ccc2c(c1O)OC(C)(C)c1c-2ccc2c1C(=O)N(c1ccc(C(=O)c3ccccc3)cc1)C2=O [Ampkinone] (10 µM) 0
CNC(=O)Nc1ccc(-c2cc(-c3ccnc(Nc4ccc(C)c(S(=O)(=O)N(C)C)c4)n3)ccn2)cc1 [hSMG-1 inhibitor 11e] (2.5 µM) 0

Reference: the supplement of paper PMC12823440, “Inhibitors supercharge kinase turnover through native proteolytic circuits” (Nature, 2025)
